These are yes or no findings as the source states them, for the method shown. Some binding calls cover weakened binding; strength is not graded here.
Tests used:
[1] = molecular target: human CD36 (on HEK 293 or SCC25 cells) (human) (UniProt P16671); test: FACS on SCC25 cells stably expressing human CD36, anti-human fluorescently labelled secondary antibody, GeoMFI
[2] = molecular target: human CD36 (Sino Biological) (human) (UniProt P16671); test: ELISA, plates coated with human CD36 (Sino Biological), antibody titrated, OD630nm
[3] = molecular target: mouse CD36 protein (mouse) (UniProt Q08857); test: ELISA, plates coated with mouse CD36 protein, antibody titrated, OD630nm
[4] = molecular target: mouse CD36 protein (mouse) (UniProt Q08857); test: ELISA, plates coated with mouse CD36
[5] = molecular target: human CD36 (on HEK 293 or SCC25 cells) (human) (UniProt P16671); test: FACS, SCC25 cells
[6] = molecular target: human CD36 (Sino Biological) (human) (UniProt P16671); test: ELISA, plates coated with human CD36
[7] = molecular target: human CD36 (Sino Biological) (human) (UniProt P16671); test: ELISA
[8] = molecular target: mouse CD36 protein (mouse) (UniProt Q08857); test: ELISA

Chains of the proteins cited; added tags and fusions are not shown. Lines headed by an entry give the natural chain unless they say otherwise; changes in a name come on top.
UniProt P16671: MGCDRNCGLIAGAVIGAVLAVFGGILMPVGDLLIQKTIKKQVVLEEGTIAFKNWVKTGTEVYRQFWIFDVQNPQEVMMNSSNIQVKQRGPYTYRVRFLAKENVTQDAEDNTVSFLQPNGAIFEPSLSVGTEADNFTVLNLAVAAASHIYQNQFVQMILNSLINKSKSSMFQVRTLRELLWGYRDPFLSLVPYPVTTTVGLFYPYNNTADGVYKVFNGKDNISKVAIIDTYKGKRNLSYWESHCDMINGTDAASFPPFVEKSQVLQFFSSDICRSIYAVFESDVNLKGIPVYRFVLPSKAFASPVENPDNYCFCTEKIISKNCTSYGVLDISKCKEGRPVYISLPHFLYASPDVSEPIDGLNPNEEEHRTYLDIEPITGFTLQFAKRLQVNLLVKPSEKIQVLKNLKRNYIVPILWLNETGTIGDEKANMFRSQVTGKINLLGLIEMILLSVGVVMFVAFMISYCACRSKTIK
UniProt Q08857: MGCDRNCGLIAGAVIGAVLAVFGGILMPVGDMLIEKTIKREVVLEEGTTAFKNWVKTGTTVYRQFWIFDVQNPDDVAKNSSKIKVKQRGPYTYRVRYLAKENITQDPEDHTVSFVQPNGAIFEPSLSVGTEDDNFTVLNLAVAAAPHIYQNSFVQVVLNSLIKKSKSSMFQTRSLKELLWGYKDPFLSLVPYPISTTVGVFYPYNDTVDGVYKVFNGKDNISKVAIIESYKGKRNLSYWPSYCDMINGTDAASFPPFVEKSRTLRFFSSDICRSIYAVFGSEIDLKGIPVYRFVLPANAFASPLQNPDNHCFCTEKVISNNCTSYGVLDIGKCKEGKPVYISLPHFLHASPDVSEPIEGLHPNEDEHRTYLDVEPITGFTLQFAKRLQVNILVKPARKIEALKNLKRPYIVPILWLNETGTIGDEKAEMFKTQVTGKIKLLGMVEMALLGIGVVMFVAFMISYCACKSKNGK

Measured: binding

B1: 1G03 (antibody, V domains shown)
VH: QVQLKQSGADLVRPGASVKLSCKASGYTFTDYYINWVKQRPGQGLEWIARIYPGSGNTYYNEKFKGKATLTAEKSSSTAYMQLSSLTSEDSAVYFCARGIGGGFGMDYWGQGTSVTVSS
VL: SIVMTQTPKFLLVSAGDRITITCKASQSVSDDVAWYQQKPGQSPKLLIYYASNRYTGVPDRFTGSGYGTDFTFTISTVQAEDLAVYFCQQDYSSPLTFGAGTKLEIK
not listed: [7] | [8]
binds: all other assays above

B2: 1G07 (antibody, V domains shown)
VH: QVQLKQSGADLVRPGASVKLSCKASGYTFTDYYINWVKQRPGQGLEWIARIYPGSGNTYYNEKFKGKATLTAEKSSSTAYMQLSSLTSEDSAVYFCARGIGGGFGMDYWGQGTSVTVSS
VL: SIVMTQTPKFLLVSAGDRITITCKASQSVSDDVAWYQQKPGQSPKLLIYYASNRYTGVPDRFTGSGYGTDFTFTISTVQAEDLAVYFCQQDYSSPLTFGAGTKLEIK
not listed: [2] | [3]
binds: all other assays above

B3: 1G05 (antibody, V domains shown)
VH: QVQLKQSGADLVRPGASVKLSCKASGYTFTDYYINWVKQRPGQGLEWIARIYPGSGNTYYNEKFKGKATLTAEKSSSTAYMQLSSLTSEDSAVYFCARGIGGGFGMDYWGQGTSVTVSS
VL: SIVMTQTPKFLLVSAGDRITITCKASQSVSDDVAWYQQKPGQSPKLLIYYASNRYTGVPDRFTGSGYGTDFTFTISTVQAEDLAVYFCQQDYSSPLTFGAGTKLEIK
binds: all assays above

— US20250206836A1
